The text below walks through data of paper PMC11704088.

Protein sequences, listed by entry. Tags and fused reporters are not part of them.
UniProt P17931: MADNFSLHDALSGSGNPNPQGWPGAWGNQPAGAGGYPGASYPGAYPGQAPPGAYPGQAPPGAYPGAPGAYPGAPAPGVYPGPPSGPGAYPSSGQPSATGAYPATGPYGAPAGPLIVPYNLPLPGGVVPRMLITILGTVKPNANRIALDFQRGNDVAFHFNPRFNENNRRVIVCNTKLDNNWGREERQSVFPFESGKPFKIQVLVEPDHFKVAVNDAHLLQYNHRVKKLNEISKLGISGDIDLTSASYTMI

No constants are given. Whether binding was seen depends on the method and setting. Binding seen in cells or lysates may run through a third protein. Some entries that bind do so weakly or less than the wild type.

For the assay, the target named is galectin-3 (human (endogenous in human brain vascular smooth muscle cells)) (UniProt P17931). Nature of the assay: co-IP; lysate of VSMCs with protease inhibitors incubated with anti-galectin-3 antibody or IgG and magnetic beads at 4 °C for 12 h; beads washed with lysis buffer; eluate analysed by Western blot; for TLR4, cells transfected with mimic-NC or tRF-AspGTC mimic. For orientation: In western blotting, separated proteins are transferred to a membrane and probed.

B1: tripartite motif 29 (protein, UniProt Q14134 1-588)
chain: MEAADASRSNGSSPEARDARSPSGPSGSLENGTKADGKDAKTTNGHGGEAAEGKSLGSALKPGEGRSALFAGNEWRRPIIQFVESGDDKNSNYFSMDSMEGKRSPYAGLQLGAAKKPPVTFAEKGELRKSIFSESRKPTVSIMEPGETRRNSYPRADTGLFSRSKSGSEEVLCDSCIGNKQKAVKSCLVCQASFCELHLKPHLEGAAFRDHQLLEPIRDFEARKCPVHGKTMELFCQTDQTCICYLCMFQEHKNHSTVTVEEAKAEKETELSLQKEQLQLKIIEIEDEAEKWQKEKDRIKSFTTNEKAILEQNFRDLVRDLEKQKEEVRAALEQREQDAVDQVKVIMDALDERAKVLHEDKQTREQLHSISDSVLFLQEFGALMSNYSLPPPLPTYHVLLEGEGLGQSLGNFKDDLLNVCMRHVEKMCKADLSRNFIERNHMENGGDHRYVNNYTNSFGGEWSAPDTMKRYSMYLTPKGGVRTSYQPSSPGRFTKETTQKNFNNLYGTKGNYTSRVWEYSSSIQNSDNDLPVVQGSSSFSLKGYPSLMRSQSPKAQPQTWKSGKQTMLSHYRPFYVNKGNGIGSNEAP
Consider B1, for which the binding entry is “binds”.
